In the supplement of paper PMC6411743:
± gives the standard deviation of the averaged measurements. The entries are a selection whose mix differs from that of the whole data set. Most entries show no effect beyond the scatter of the controls.

Chains of the proteins cited; added tags and fusions are not shown. Lines headed by an entry give the natural chain unless they say otherwise; changes in a name come on top.
UniProt Q9BX95: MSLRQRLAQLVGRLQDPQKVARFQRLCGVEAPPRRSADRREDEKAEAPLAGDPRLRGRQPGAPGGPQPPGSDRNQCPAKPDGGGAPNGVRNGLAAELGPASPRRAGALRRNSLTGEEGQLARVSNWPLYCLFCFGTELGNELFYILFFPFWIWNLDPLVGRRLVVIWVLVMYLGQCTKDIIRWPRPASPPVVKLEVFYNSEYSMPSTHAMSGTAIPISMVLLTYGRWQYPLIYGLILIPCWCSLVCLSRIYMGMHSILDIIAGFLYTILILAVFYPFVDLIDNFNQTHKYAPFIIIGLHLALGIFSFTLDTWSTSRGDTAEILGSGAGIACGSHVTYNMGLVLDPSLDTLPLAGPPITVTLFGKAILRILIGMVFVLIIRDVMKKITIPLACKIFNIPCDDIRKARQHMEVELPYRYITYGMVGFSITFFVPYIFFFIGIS
UniProt Q96T58, whole entry: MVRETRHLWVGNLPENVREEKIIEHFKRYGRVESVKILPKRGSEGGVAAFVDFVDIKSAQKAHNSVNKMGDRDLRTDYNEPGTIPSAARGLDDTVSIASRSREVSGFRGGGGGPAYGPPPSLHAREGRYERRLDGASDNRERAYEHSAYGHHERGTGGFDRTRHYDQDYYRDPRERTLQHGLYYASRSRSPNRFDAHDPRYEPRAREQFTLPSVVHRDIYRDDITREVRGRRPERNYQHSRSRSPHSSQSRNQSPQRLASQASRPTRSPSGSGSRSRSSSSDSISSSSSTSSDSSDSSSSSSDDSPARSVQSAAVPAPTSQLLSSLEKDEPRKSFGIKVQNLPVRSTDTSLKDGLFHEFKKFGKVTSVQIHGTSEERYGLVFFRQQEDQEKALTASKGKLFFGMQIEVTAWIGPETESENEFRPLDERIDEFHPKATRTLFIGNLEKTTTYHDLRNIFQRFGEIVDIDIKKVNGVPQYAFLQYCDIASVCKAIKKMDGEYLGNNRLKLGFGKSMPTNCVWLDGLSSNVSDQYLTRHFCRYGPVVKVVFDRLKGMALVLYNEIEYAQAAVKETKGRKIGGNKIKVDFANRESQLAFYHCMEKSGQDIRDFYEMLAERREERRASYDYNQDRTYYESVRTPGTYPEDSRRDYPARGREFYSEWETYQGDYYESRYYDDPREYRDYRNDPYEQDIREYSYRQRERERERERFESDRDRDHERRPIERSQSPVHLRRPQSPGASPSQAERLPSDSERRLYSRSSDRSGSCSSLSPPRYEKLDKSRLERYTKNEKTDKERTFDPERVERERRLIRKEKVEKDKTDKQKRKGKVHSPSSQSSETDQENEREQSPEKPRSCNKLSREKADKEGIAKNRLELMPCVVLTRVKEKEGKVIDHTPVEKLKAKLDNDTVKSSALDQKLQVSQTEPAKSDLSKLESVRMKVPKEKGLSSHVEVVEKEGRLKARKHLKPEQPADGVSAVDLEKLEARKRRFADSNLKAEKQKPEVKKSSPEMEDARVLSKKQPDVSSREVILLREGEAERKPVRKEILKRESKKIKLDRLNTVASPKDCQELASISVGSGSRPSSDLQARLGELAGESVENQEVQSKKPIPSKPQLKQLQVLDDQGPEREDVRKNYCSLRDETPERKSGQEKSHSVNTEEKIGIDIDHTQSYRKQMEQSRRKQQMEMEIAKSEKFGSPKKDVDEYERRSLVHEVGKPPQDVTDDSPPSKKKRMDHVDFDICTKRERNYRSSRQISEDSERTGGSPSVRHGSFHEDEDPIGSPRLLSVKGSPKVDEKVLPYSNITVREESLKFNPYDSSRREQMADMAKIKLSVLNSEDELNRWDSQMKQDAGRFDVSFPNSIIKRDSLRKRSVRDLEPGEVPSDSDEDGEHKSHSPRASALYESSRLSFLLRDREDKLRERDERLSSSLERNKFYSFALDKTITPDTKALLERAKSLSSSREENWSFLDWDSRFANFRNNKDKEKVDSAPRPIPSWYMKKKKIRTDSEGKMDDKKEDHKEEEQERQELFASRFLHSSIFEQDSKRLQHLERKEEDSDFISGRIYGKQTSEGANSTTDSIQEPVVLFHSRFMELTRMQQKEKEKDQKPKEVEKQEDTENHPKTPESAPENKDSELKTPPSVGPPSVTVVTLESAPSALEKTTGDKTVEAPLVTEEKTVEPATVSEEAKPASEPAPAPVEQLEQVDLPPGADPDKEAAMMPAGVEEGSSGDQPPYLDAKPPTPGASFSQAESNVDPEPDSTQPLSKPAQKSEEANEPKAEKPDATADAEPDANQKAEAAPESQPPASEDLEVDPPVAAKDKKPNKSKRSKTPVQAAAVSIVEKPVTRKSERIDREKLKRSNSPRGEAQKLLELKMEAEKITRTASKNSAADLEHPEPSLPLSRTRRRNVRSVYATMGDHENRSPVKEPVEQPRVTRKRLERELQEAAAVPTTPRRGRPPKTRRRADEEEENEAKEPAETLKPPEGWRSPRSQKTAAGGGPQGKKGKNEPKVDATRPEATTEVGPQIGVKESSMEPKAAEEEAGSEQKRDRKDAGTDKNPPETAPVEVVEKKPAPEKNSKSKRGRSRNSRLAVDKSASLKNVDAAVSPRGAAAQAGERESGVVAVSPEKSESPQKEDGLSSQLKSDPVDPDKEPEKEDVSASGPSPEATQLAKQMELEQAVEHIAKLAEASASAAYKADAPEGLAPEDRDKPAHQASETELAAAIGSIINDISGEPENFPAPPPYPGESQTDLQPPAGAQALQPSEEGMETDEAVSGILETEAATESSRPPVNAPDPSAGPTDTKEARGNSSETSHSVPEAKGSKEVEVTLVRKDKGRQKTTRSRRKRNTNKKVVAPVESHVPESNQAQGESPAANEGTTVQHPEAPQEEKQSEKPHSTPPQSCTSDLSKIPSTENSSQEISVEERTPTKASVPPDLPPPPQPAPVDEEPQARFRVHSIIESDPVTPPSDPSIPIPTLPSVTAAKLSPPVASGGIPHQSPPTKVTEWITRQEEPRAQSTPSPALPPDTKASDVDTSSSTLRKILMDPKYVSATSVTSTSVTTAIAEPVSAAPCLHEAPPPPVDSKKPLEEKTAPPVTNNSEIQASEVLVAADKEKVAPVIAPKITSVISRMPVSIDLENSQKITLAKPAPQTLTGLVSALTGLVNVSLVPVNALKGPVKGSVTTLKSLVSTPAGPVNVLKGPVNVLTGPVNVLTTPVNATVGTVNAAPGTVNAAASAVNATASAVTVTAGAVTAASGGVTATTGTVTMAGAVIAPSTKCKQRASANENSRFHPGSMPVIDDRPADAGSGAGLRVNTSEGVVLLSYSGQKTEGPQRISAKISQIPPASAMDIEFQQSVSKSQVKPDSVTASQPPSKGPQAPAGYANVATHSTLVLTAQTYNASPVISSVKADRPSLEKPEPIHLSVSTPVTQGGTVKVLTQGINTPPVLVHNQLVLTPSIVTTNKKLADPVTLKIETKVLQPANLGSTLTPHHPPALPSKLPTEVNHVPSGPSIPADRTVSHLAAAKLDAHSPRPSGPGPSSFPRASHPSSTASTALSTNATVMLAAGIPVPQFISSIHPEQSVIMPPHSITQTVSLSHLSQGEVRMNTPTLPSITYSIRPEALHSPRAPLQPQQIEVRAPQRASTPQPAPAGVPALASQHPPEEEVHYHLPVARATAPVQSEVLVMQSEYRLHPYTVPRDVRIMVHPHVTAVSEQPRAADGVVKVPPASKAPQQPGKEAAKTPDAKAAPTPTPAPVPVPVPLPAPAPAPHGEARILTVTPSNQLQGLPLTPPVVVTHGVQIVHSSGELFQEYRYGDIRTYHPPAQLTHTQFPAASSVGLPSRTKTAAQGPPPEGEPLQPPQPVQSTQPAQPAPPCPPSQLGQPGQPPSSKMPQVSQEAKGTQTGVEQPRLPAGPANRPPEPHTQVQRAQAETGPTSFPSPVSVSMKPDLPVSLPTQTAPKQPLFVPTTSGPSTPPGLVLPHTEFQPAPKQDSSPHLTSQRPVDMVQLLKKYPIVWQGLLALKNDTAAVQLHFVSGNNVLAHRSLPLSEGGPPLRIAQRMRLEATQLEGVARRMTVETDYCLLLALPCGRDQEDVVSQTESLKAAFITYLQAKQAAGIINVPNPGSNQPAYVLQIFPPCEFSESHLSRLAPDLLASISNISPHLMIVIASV
UniProt Q9BYE7: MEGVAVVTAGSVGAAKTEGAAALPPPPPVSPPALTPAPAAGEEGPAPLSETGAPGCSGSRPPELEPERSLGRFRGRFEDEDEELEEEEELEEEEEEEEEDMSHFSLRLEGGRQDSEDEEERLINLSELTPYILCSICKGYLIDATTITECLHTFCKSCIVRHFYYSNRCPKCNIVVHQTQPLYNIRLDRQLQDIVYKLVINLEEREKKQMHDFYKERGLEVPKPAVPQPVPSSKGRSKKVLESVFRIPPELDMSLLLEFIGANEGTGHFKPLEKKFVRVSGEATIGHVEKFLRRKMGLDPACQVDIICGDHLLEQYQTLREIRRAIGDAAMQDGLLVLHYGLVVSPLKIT
UniProt Q9BWD1: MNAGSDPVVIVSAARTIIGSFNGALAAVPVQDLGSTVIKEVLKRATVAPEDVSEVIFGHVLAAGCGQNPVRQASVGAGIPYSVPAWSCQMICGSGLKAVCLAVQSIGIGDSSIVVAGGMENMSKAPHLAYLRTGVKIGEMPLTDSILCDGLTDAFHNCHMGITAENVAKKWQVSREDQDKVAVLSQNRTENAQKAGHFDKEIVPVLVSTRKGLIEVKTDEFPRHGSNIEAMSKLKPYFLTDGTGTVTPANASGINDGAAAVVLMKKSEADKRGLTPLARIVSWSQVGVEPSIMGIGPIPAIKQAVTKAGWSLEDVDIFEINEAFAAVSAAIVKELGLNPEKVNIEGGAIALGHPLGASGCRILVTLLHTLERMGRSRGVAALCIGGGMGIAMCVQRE
UniProt Q9BSI4: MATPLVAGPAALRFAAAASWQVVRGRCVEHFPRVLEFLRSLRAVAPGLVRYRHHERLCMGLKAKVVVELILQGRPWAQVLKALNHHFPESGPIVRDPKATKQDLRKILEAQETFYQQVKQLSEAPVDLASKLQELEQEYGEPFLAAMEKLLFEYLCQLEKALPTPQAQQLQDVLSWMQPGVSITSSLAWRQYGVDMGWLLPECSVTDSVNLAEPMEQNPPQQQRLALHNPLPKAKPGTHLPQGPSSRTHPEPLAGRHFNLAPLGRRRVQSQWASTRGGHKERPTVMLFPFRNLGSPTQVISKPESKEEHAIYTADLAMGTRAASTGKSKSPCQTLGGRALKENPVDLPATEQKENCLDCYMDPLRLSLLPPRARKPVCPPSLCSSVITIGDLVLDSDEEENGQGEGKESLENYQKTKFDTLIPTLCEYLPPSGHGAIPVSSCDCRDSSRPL
UniProt Q9BWT3: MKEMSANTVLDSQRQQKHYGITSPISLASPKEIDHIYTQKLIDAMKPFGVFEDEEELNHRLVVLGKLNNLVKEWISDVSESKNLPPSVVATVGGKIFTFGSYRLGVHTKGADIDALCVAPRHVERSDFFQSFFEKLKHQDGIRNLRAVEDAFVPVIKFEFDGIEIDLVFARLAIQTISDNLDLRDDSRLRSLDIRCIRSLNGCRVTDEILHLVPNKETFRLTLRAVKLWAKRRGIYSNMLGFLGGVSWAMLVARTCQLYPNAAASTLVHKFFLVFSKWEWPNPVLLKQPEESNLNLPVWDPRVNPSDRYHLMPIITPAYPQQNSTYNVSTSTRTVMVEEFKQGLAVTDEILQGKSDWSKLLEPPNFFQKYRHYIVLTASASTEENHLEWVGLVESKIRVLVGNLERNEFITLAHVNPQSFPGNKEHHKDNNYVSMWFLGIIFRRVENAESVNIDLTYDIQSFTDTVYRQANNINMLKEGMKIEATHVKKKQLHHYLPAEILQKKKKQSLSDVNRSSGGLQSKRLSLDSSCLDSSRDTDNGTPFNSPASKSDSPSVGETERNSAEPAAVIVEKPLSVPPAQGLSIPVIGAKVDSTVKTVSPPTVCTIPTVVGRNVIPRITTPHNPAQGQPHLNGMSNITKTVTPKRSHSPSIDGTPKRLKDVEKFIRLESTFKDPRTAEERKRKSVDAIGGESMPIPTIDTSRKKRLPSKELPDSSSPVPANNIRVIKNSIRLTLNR
UniProt Q9BTZ2: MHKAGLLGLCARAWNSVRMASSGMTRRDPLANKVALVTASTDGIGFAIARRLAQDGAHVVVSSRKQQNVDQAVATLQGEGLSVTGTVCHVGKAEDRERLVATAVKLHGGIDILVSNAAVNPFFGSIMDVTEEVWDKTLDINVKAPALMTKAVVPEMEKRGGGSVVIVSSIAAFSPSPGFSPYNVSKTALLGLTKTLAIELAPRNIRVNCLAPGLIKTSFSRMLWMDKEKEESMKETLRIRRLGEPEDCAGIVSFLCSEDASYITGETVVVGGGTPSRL
UniProt Q9BWJ5: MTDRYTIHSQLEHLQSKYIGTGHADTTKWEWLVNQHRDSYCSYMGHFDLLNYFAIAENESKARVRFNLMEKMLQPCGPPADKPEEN
UniProt Q99757: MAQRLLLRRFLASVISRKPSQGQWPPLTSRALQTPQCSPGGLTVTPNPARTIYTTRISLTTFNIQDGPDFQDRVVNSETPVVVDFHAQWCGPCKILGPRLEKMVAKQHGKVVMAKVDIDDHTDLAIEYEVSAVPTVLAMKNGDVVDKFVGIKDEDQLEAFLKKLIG

Compound: Nc1ncnc2c1ncn2[C@@H]1O[C@H](COP(=O)(O)OP(=O)(O)NP(=O)(O)O)[C@@H](O)[C@H]1O [adenylyl imidodiphosphate]
Assay: NP40-soluble protein abundance relative to vehicle (solubility fold change) (ratio); higher = more soluble protein in presence of AMP-PNP
Outline: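 Eight concentrations, 0.1 to 10 mM, were tested on Jurkat crude lysate for 10 min at room temperature and then 3 min at 37 °C, in three independent experiments. The lysate was solubilised with 0.8% NP40 and benzonase, ultracentrifuged, and the supernatant TMT-labelled for LC-MS/MS. Each value is the fold change against the detergent-processed vehicle in its own replicate, from vsn-normalised intensities.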

Target | NP40-soluble protein abundance (concentration: 0.1mM) | NP40-soluble protein abundance (concentration: 0.5mM)
MAK16 (UniProt Q9BXY0) | 0.989 ± 0.036 | 1.01 ± 0.011
UniProt Q96QZ7 and related entries | 1.001 ± 0.0029 | 0.998 ± 0.013
SGPP1 (UniProt Q9BX95) | 0.982 ± 0.073 | 0.999 ± 0.076
DNAJC7 (UniProt Q99615) | 0.988 ± 0.018 | 1.03 ± 0.031
UniProt Q96T76 and related entries | 1.02 ± 0.034 | 1.01 ± 0.031
UniProt Q9BT25 and related entries | 0.995 ± 0.031 | 1.006 ± 0.01
UniProt Q9BV73 and related entries | 1 ± 0.031 | 0.982 ± 0.025
PECR (UniProt Q9BY49) | 1.01 ± 0.014 | 1.03 ± 0.054
AARSD1 (UniProt Q9BTE6) | 0.977 ± 0.033 | 0.978 ± 0.04
UniProt Q9BTV5 and related entries | 0.9901 ± 0.0035 | 0.988 ± 0.021
FUT8 (UniProt Q9BYC5) | 0.98 ± 0.028 | 0.99 ± 0.011
COPS4 (UniProt Q9BT78) | 1 ± 0.085 | 0.969 ± 0.069
SPEN (UniProt Q96T58) | 1.01 ± 0.012 | 1.05 ± 0.043
UniProt Q99829 and related entries | 1.02 ± 0.036 | 0.992 ± 0.049
UniProt Q9BQ61 | 0.958 ± 0.055 | 0.985 ± 0.06
UniProt Q9BVV7 | 1.022 ± 0.0032 | 1.047 ± 0.0057
PSMB7 (UniProt Q99436) | 0.998 ± 0.023 | 0.976 ± 0.063
DOHH (UniProt Q9BU89) | 0.988 ± 0.019 | 1.01 ± 0.074
PCGF6 (UniProt Q9BYE7) | 0.992 ± 0.034 | 1.01 ± 0.037
NUF2 (UniProt Q9BZD4) | 0.972 ± 0.023 | 1.01 ± 0.07
ACAT2 (UniProt Q9BWD1) | 0.971 ± 0.021 | 0.993 ± 0.031

Target | NP40-soluble protein abundance (concentration: 0.1mM) | NP40-soluble protein abundance (concentration: 0.5mM)
CPPED1 (UniProt Q9BRF8) | 1.04 ± 0.011 | 0.993 ± 0.057
C7orf50 (UniProt Q9BRJ6) | 1.02 ± 0.018 | 1.02 ± 0.02
ABHD6 (UniProt Q9BV23) | 1.02 ± 0.0085 | 1 ± 0.014
BDH2 (UniProt Q9BUT1) | 0.9931 ± 0.0096 | 0.988 ± 0.021
CARD11 (UniProt Q9BXL7) | 0.983 ± 0.016 | 0.947 ± 0.04
PHF20 (UniProt Q9BVI0) | 1.03 ± 0.059 | 1.02 ± 0.015
UniProt Q9BQ39 and related entries | 1.08 ± 0.031 | 1.15 ± 0.033
UniProt Q9BSI4 and related entries | 1.03 ± 0.029 | 1.03 ± 0.039
MECR (UniProt Q9BV79) | 1.27 ± 0.087 | 1.05 ± 0.051
RIOK1 (UniProt Q9BRS2) | 0.928 ± 0.029 | 0.9213 ± 0.0048
UniProt Q9BW83 and related entries | 1.008 ± 0.0035 | 0.999 ± 0.05
BUD13 (UniProt Q9BRD0) | 1 ± 0.019 | 0.993 ± 0.04
ARPC5L (UniProt Q9BPX5) | 1.04 ± 0.035 | 1.02 ± 0.055
ADI1 (UniProt Q9BV57) | 1.01 ± 0.031 | 0.994 ± 0.026
PARK7 (UniProt Q99497) | 0.9591 ± 0.0047 | 1.01 ± 0.04
TP53RK (UniProt Q96S44) | 0.976 ± 0.056 | 0.992 ± 0.028
CNPY3 (UniProt Q9BT09) | 0.9844 ± 0.0082 | 0.9911 ± 0.0097
UniProt Q9BWT3 and related entries | 0.986 ± 0.0099 | 1.01 ± 0.029
SH3GL2 (UniProt Q99962) | 0.99 ± 0.028 | 1.02 ± 0.013
UniProt Q9BY44 and related entries | 0.988 ± 0.024 | 1.02 ± 0.024
HSD17B10 (UniProt Q99714) | 1 ± 0.027 | 1.04 ± 0.041

Reprinted from the results shown for reference:
Target | NP40-soluble protein abundance (concentration: 0.1mM) | NP40-soluble protein abundance (concentration: 0.5mM)
BUD13 (UniProt Q9BRD0) | 1 ± 0.019 | 0.993 ± 0.04
ARPC5L (UniProt Q9BPX5) | 1.04 ± 0.035 | 1.02 ± 0.055
ADI1 (UniProt Q9BV57) | 1.01 ± 0.031 | 0.994 ± 0.026
PARK7 (UniProt Q99497) | 0.9591 ± 0.0047 | 1.01 ± 0.04

Continuation:

Target | NP40-soluble protein abundance (concentration: 0.1mM) | NP40-soluble protein abundance (concentration: 0.5mM)
UIMC1 (UniProt Q96RL1) | 0.992 ± 0.035 | 1.03 ± 0.012
UTP14A (UniProt Q9BVJ6) | 1.016 ± 0.0076 | 1.04 ± 0.03
UniProt Q9BXS6 and related entries | 0.958 ± 0.013 | 0.954 ± 0.06
UniProt Q99808 and related entries | 1 ± 0.07 | 0.962 ± 0.076
UniProt Q9BTD8 and related entries | 1.03 ± 0.021 | 1.01 ± 0.029
DSCC1 (UniProt Q9BVC3) | 1.01 ± 0.016 | 0.986 ± 0.046
UniProt Q96RN5 and related entries | 1.02 ± 0.062 | 0.985 ± 0.035
GINS3 (UniProt Q9BRX5) | 0.99 ± 0.02 | 0.975 ± 0.0098
DHRS4 (UniProt Q9BTZ2) | 0.9854 ± 0.0067 | 0.974 ± 0.037
SF3B5 (UniProt Q9BWJ5) | 0.98 ± 0.025 | 0.993 ± 0.067
POP1 (UniProt Q99575) | 0.996 ± 0.052 | 0.965 ± 0.058
LLPH (UniProt Q9BRT6) | 1.05 ± 0.084 | 1.07 ± 0.025
UniProt Q9BSW2-2 | 1.01 ± 0.029 | 1 ± 0.057
UniProt Q9BSC4 and related entries | 0.954 ± 0.022 | 0.961 ± 0.016
UniProt Q9BX63 and related entries | 1.01 ± 0.016 | 0.988 ± 0.019
UniProt Q9BS26 | 1.02 ± 0.015 | 1.01 ± 0.018
UniProt Q99828 and related entries | 0.9917 ± 0.0076 | 0.99 ± 0.025
UniProt Q96RS0 and related entries | 0.9645 ± 0.0035 | 0.995 ± 0.046
TXN2 (UniProt Q99757) | 0.951 ± 0.051 | 1.01 ± 0.034
